The values below come from patent US20250270301A1.

Protein sequences, listed by entry. Tags and fused reporters are not part of them. Lines headed by an entry give the natural chain unless they say otherwise; changes in a name come on top.
UniProt P10636: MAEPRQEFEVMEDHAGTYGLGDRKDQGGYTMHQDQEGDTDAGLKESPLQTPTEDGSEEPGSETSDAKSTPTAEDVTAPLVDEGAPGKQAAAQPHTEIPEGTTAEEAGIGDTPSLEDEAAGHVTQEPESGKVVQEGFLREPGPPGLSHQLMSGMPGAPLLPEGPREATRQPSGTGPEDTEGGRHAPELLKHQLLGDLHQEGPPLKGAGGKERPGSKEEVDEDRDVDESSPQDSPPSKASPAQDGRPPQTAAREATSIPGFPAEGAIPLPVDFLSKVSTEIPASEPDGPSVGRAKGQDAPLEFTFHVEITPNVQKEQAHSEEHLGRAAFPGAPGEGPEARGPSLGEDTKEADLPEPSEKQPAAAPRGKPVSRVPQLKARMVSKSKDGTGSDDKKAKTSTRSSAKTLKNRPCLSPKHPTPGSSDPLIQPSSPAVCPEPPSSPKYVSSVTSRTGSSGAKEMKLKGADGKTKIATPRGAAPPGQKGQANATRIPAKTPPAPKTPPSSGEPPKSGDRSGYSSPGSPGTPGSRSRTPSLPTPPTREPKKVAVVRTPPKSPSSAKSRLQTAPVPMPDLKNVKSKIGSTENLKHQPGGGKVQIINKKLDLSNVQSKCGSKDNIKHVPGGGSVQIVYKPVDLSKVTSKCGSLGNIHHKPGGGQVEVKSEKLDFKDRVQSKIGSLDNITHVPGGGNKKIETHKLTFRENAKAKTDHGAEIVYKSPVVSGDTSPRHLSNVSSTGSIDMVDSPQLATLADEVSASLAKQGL

Results are given in words; binding and its absence hold for the method and conditions named. Some binding calls cover weakened binding; strength is not graded here.

For assay [1], the target named is full length recombinant human 2N4R tau (human) (UniProt P10636). The assay can be described thus: ELISA on 2N4R tau, HEK supernatant (legend 1:100; paragraph 307: matched to 30 ng/ml), anti-human IgG-HRP, n=1. Background: In an ELISA, binding on a coated surface is turned into a signal by an enzyme label.
Assay [2] shares this target. As to the kind of experiment: ELISA, supernatants at 30 ng/ml.

B1: #44_VH4VK4_H14/pVL (antibody, V domains shown)
VH: QVQLQESGPGLVKPSETLSLTCTVSGIDLSSYAMAWVRQAPGKGLEWIGAIDSAGSTFYASWVKGRSTISKDTSKTTVDLQMTSLTAEDTATYFCARDSGAFDPWGQGTLVTVSS
VL: DIQMTQSPSSLSASVGDRVTITCQASQSVYDNYLAWYQQKPGQPPKLLIHAASNLASGVPSRFSGSGSGTEFTLTISSLQPDDFATYYCLGEFSCTTTDCNVFGGGTKVEIK
Consider B1, for which the binding result in assay [1] and in assay [2] was “binds” in each case.

B2: #44_VH4VK4 pVH/L2 (antibody, V domains shown)
VH: QVQLQESGPGLVKPSETLSLTCTVSGIDLSSYAMAWVRQAPGKGLEWIGCIDRRGGTFYASWVKGRFTISKDTSKTTVDLQMTSLTAEDTATYFCARDSGAFDPWGQGTLVTVSS
VL: DIQMTQSPSSLSASVGDRVTITCQASQSVYDNYLAWYQQKPGQPPKLLIHAASNLASGVPSRFSGSGSGTEFTLTISSLQPDDFATYYCLGEFSCQDTDCNVFGGGTKVEIKR
With B2, the binding entry in assay [1] and in assay [2] was “binds” throughout.
